One series deals with T1, T4 Dda-E94C/A360C (UniProt P32270).
T1 sequence: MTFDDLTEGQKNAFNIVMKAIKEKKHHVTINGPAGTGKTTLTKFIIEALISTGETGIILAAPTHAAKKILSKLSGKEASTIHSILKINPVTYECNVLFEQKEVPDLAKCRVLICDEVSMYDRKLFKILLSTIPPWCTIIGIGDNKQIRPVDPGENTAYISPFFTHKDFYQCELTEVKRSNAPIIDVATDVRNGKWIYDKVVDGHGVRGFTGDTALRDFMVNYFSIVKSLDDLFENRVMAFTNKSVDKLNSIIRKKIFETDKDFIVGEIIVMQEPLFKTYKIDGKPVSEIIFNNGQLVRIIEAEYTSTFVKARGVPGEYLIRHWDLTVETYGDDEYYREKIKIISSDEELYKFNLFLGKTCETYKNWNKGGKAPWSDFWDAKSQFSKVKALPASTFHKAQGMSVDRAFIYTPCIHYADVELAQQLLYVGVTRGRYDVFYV
In words: binding assay. To be noted: flanked by four iSpC3 spacers on each side; nanopore (MspA) translocation; pre-incubated at room temperature; active helicase with 10 mM MgCl2, 1 mM ATP, 600 mM KCl pH 8.0; purified recombinant protein; single-stranded DNA.

Series [1] has as its target T2, T4 Dda-E94C/C109A/C136A/A360C (UniProt P32270).
T2 sequence: T1 sequence with C109A, C136A
As to the kind of experiment: binding assay. To be noted: flanked by four iSpC3 spacers on each side; nanopore (MspA) translocation; active helicase with MgCl2 and ATP; purified recombinant protein; single-stranded ….

Residue numbers refer to the chain shown, from its start. The exact form of at least one protein or probe is not confirmed. Protein sequences can lack the tags named with them.

With “TTTTTTTTTTTTTTT [DNA construct Y, T4 Dda loading region (section c)]”, the binding result (with T4 Dda-E94C/A360C; in series [1]) was “binds” in each case.

Source of the values: US20170002406.
